These are yes or no findings as the source states them, for the method shown. Some entries that bind do so weakly or less than the wild type.

Chains of the proteins cited; added tags and fusions are not shown. Lines headed by an entry give the natural chain unless they say otherwise; changes in a name come on top. A line that says so, or that is headed by a name, gives the form on record, which may keep a tag or linker.
rC-Agy4z8, soluble 95-kD COOH-terminal fragment of rat agrin, y4 z8 (P25304, form named): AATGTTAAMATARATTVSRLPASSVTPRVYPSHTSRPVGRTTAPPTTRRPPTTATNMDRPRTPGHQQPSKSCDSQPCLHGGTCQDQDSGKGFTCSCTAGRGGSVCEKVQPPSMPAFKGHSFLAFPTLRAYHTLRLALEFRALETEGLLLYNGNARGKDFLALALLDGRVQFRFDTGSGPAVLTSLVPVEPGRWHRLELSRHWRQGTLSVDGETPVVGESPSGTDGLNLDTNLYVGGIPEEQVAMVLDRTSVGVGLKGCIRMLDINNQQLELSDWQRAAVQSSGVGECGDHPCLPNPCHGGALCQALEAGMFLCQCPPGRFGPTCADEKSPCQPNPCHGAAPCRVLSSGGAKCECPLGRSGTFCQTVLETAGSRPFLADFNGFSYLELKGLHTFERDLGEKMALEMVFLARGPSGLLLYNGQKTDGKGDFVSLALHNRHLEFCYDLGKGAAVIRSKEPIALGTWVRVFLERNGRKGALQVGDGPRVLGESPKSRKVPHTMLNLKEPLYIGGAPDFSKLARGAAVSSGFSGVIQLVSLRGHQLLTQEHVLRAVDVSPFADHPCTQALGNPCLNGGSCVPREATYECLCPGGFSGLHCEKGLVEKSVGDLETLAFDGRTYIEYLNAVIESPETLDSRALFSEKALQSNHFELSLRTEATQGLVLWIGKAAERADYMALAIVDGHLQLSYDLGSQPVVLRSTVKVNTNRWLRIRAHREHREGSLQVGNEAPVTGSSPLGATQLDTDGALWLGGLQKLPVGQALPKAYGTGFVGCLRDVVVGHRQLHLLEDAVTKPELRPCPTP
UniProt A2ASQ1: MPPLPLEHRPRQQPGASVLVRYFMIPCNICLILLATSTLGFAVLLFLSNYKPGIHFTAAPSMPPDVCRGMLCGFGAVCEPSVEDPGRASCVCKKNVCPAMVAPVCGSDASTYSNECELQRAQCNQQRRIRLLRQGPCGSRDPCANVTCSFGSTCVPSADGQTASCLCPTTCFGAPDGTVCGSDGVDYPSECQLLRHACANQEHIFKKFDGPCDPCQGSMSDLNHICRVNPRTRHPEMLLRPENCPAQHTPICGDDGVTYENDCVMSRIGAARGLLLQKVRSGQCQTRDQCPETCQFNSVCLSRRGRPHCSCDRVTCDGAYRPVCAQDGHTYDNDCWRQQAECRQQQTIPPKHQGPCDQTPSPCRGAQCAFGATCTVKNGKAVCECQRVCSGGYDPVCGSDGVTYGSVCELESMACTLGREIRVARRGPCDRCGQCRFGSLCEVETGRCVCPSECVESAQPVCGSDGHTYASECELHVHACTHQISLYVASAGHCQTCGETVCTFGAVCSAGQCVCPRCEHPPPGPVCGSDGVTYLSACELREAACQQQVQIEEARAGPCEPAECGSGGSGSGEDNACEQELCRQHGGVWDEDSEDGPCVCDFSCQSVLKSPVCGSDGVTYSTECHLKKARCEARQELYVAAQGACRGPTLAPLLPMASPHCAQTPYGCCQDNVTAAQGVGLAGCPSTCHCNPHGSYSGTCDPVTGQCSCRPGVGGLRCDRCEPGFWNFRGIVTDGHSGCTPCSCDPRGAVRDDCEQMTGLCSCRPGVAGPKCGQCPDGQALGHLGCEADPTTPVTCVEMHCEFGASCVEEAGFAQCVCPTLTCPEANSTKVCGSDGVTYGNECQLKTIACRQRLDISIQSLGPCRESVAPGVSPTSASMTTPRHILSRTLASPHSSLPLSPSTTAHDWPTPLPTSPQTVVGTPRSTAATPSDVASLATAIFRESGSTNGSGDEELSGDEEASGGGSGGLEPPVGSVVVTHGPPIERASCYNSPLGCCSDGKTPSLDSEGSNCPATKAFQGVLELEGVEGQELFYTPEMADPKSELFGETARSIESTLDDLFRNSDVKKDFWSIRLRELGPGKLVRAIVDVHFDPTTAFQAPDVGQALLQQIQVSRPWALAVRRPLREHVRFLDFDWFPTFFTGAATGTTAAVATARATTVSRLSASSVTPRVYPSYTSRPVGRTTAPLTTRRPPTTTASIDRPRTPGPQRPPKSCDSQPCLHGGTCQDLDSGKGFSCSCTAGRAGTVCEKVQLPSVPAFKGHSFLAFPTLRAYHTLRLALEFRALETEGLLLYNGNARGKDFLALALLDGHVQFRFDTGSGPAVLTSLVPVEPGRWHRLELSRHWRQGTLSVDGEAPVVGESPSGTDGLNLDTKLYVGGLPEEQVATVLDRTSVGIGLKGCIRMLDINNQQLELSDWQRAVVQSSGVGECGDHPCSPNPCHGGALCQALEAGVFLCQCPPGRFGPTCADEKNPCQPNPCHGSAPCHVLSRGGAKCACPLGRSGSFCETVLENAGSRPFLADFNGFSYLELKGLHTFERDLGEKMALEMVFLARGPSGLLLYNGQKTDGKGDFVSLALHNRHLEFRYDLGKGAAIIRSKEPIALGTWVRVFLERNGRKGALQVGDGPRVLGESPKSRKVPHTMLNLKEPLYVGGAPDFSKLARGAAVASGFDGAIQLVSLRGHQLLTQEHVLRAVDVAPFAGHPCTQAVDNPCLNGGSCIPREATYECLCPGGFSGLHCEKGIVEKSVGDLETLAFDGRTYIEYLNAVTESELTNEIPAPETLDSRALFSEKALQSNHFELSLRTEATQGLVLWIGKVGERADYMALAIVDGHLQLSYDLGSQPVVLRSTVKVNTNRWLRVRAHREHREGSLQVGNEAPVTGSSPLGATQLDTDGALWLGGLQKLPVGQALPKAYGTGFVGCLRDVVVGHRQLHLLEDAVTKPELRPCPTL

The target in test [1] is α3 subunit of the Na+/K+-ATPase, endogenous on mouse cells (cortical neurons, cortical slices, cardiac myocytes) (mouse) (UniProt Q6PIC6). The test can be described thus: competition against His-tagged short mouse agrin fragments on live cortical neurons, immunofluorescence.
Test [2] has the same target. The test can be described thus: competition at 500-fold molar excess against His-tagged short mouse agrin fragments on live cortical neurons.
For test [3] the target is unchanged. Description: BS3 cross-linking, immunoprecipitation with agrin or α3 antibodies, immunoblot for α3.
Test [4] has the same target. The test can be described thus: BS3 cross-linking of cultured cortical neurons and cortical slices, immunoprecipitation, immunoblot for α3. (In general: In western blotting, separated proteins are transferred to a membrane and probed.)

For the substance “rC-Agy4z8, soluble 95-kD COOH-terminal fragment of rat agrin, y4 z8 (from UniProt P25304 1153-1951) (ligand)”, the binding entry in test [1] and in test [2] was “binds” in each case.
For “endogenous (native) agrin of mouse cortical neurons and cortex (from UniProt A2ASQ1 1-1950) (ligand)”, the binding result in test [3] and in test [4] was “binds” each time.

The values above are taken from patent US20100095387A1, “METHODS AND REAGENTS FOR SCREENING NEW DRUGS AND FOR TREATING ION PUMP ASSOCIATED DISORDERS AND DISEASES” (priority 2005, published 2010).
